Assay results: article PMC1636664
The exact form of at least one protein or probe is not confirmed. Results from cells or extracts need not show a direct contact. Negatives hold for the conditions tested. At least one verdict was read from the data and is not stated in words by the source. The comparison behind a weaker result is the experiment's own reference, which may not be listed here.

Amino acid sequences for entries named in this document (tags omitted).
UniProt P03372, whole entry, stated change not applied: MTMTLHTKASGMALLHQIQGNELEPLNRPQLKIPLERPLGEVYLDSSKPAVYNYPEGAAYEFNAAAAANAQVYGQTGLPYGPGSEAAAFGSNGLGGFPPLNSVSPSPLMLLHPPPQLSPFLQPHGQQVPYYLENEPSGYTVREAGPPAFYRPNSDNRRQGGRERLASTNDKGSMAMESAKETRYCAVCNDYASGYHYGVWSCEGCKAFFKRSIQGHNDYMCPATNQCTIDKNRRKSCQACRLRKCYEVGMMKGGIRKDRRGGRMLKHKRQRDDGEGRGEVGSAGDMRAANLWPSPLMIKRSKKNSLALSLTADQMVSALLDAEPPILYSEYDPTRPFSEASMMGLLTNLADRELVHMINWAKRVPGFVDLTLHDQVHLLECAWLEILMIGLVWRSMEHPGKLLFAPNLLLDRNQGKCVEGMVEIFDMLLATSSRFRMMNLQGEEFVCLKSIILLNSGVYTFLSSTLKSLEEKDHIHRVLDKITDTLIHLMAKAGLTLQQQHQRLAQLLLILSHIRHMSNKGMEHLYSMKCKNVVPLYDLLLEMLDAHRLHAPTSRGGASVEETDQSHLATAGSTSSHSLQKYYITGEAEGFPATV

Biological target: estrogen receptor alpha (ERα) (Homo sapiens (T47D cells, clone 10, ER+)) (UniProt P03372)
Test: EMSA
Settings: 50 mM Tris pH 7.5, 4% glycerol, 1 mM MgCl2, 0.5 mM EDTA, 0.5 mM DTT, 50 mM NaCl, 0.05 mg/ml poly(dI-dC), 2-5 µg nuclear extract, room temperature 20 min, 6% gel, 0.5x TBE, protein in an extract, label: 32P end label
[1] = faint C1, inhibited by anti-ERα Ab

Sequence | binding result [1] | binding result | also measured
AAGGCTCCCGGTGACCACTAGAG (double strand) [ERE-3] | binds more weakly | – | –
AGAGGGTGGTCACCCACCCTTC (double strand) [ERE-1] | binds more weakly | – | –
AGTGGGAGACCTAGGGGTGGG (double strand) [ERE-4] | binds more weakly | – | –
GGGCTTCCCGACCTTGCTGTA (double strand) [ERE-5] | binds more weakly | – | –
TACAAGATTTCGGACTAGCTG (double strand) [ERE-6 mut] | – | no binding | –
TACAGGACCTCGACCTAGCTG (double strand) [ERE-6 (putative)] | – | – | binding result (C1 and C3, inhibited by anti-ERα Ab, competed by cold ERE-6): binds
TCCAGGACTCTGTAACGCAAC (double strand) [Vit-ERE mut] | – | no binding | –
TCCAGGTCACTGTGACCCAAC (double strand) [Vit-ERE] | – | – | binding result (C1, C2, C3, inhibited by anti-ERα Ab, competed by cold Vit-ERE): binds
TTGAACCCCAGACATTGTGATCC (double strand) [ERE-2 mut] | – | no binding | –
TTGAACCCCTGACCTTGTGATCC (double strand) [ERE-2] | – | – | binding result (C1 and predominant C2, inhibited by anti-ERα Ab, competed by cold ERE-2): binds
